PubChem BioAssay AID504774 – Drosophila RNAi Screening Center – 2011
The screen tested about 23,000 reagents; shown is an unselected part of those that have a named target and a result. 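Values are quantile-normalised luminescence on an arbitrary scale; higher means more cells surviving MMS.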 A plus sign joins genes that one reagent is predicted to hit. Reagent sequences are not shown.

Screen: 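Knock-downs that shift viability of MMS-exposed cells relative to untreated ones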 (primary screen)
Cells: Drosophila Kc167 cells
Knock-down reagent: long dsRNA against Drosophila genes, about 0.25 µg dsRNA per well
Duration: about 6 days: 3 days knock-down, then 3 days with or without MMS
Treatment: methyl methanesulphonate 0.004% (w/v) for 3 days after knock-down
Read-out: 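Viability in wells given MMS, read as ATP luminescence, normalised by quantiles plate by plate and averaged across replicates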
Scale: mean viability with MMS and viability with MMS: higher = more surviving cells after MMS

no.	predicted target	DRSC id	mean viability with MMS	viability with MMS, replicate 1	viability with MMS, replicate 2
1	swi2	DRSC06457	3.49e6	4.03e6	3.87e6
2	CG15107	DRSC06534	3.46e6	4.08e6	3.75e6
3	CG13581	DRSC04216	3.59e6	4.10e6	4.05e6
4	MsrA (Methionine sulfoxide reductase A)	DRSC11159	3.46e6	3.81e6	4.00e6
5	Vm32E (Vitelline membrane 32E)	DRSC03474	3.56e6	3.96e6	4.11e6
6	CG17121	DRSC15176	3.64e6	4.18e6	4.08e6
7	CHKov2 (CHK domain ov2)	DRSC14262	3.47e6	3.92e6	3.95e6
8	ttm2 (tiny tim 2)	DRSC08268	3.50e6	4.01e6	3.93e6
9	CG2961	DRSC18246	3.49e6	3.99e6	3.92e6
10	ppk24 (pickpocket 24)	DRSC15093	3.29e6	3.65e6	3.68e6
11	Pym (Partner of Y14 and Mago)	DRSC22492	2.70e6	3.63e6	3.66e6
12	Pym (Partner of Y14 and Mago)	DRSC23017	3.33e6	3.89e6	3.68e6
13	Mayo	DRSC14300	3.45e6	3.89e6	3.88e6
14	CG15922	DRSC15128	3.74e6	4.20e6	4.30e6
15	Usp39 (Ubiquitin specific protease 39)	DRSC20032	3.45e6	3.93e6	3.85e6
16	PIG-Q (Phosphatidylinositol glycan anchor biosynthesis class Q)	DRSC19138	3.51e6	4.08e6	3.91e6
17	Rab9D + Rab9Fa + Rab9E	DRSC19853	3.64e6	4.14e6	4.09e6
18	dos	DRSC07992	3.07e6	3.63e6	3.54e6
19	dos	DRSC08713	3.47e6	3.92e6	3.95e6
20	dos	DRSC23285	2.66e6	2.72e6	3.08e6
21	LSm1 (Like Sm 1)	DRSC04458	3.72e6	4.29e6	4.08e6
22	MED20 (Mediator complex subunit 20)	DRSC03463	3.23e6	3.63e6	3.70e6
23	hpRNA:CR18854 + IP3K1	DRSC02218	3.77e6	4.49e6	4.10e6
24	Rab3GAP1 (RAB3 GTPase activating protein subunit 1)	DRSC00291	3.47e6	3.88e6	3.98e6
25	Rab3GAP1 (RAB3 GTPase activating protein subunit 1)	DRSC00703	3.55e6	4.01e6	4.04e6
26	Acp26Aa (Accessory gland protein 26Aa)	DRSC01855	3.55e6	4.08e6	3.95e6
27	CG12448	DRSC01967	3.53e6	4.02e6	3.99e6
28	CG42535	DRSC09041	3.52e6	3.99e6	4.00e6
29	CG32100	DRSC09725	3.42e6	3.83e6	3.89e6
30	CG32100	DRSC10331	3.44e6	3.89e6	3.88e6
31	Act57B (Actin 57B)	DRSC04042	3.55e6	3.75e6	4.14e6
32	CG31937	DRSC00514	3.44e6	3.86e6	3.85e6
33	EloC (Elongin C)	DRSC07423	3.56e6	4.11e6	3.97e6
34	CG42564	DRSC12518	3.49e6	4.01e6	3.91e6
35	Osi13 (Osiris 13)	DRSC12281	3.36e6	3.83e6	3.83e6
36	CG43693	DRSC09086	3.48e6	3.86e6	4.04e6
37	CG43693	DRSC10625	3.72e6	4.19e6	4.26e6
38	Gbp3 (Growth-blocking peptide 3)	DRSC15206	3.67e6	4.18e6	4.12e6
39	Or71a (Odorant receptor 71a)	DRSC11244	3.44e6	3.94e6	3.83e6
40	frac (faulty attraction)	DRSC10867	3.52e6	4.10e6	3.89e6
41	CG43347	DRSC17982	3.42e6	3.84e6	3.93e6
42	CG43347	DRSC18446	3.65e6	4.17e6	4.07e6
43	CG43347	DRSC22656	2.88e6	3.69e6	3.67e6
44	CG43347	DRSC22682	3.36e6	3.84e6	3.92e6
45	CG43347	DRSC23007	3.55e6	4.23e6	3.86e6
46	CG43347	DRSC23170	3.42e6	3.82e6	3.97e6
47	tamo	DRSC04446	3.59e6	4.14e6	4.07e6
48	ND-ASHI (NADH dehydrogenase (ubiquinone) ASHI subunit)	DRSC18291	3.69e6	4.36e6	4.02e6
49	JMJD4 (Jumonji domain containing 4)	DRSC03025	3.49e6	3.82e6	4.09e6

Next part, starting with the last 7 of the part before.
no.	predicted target	DRSC id	mean viability with MMS	viability with MMS, replicate 1	viability with MMS, replicate 2
43	CG43347	DRSC22656	2.88e6	3.69e6	3.67e6
44	CG43347	DRSC22682	3.36e6	3.84e6	3.92e6
45	CG43347	DRSC23007	3.55e6	4.23e6	3.86e6
46	CG43347	DRSC23170	3.42e6	3.82e6	3.97e6
47	tamo	DRSC04446	3.59e6	4.14e6	4.07e6
48	ND-ASHI (NADH dehydrogenase (ubiquinone) ASHI subunit)	DRSC18291	3.69e6	4.36e6	4.02e6
49	JMJD4 (Jumonji domain containing 4)	DRSC03025	3.49e6	3.82e6	4.09e6
50	Der-2 (Derlin-2)	DRSC15021	3.28e6	3.65e6	3.75e6
51	Ykt6 (YKT6 v-SNARE)	DRSC17970	3.61e6	4.11e6	4.18e6
52	CG3626	DRSC18318	3.40e6	4.01e6	3.69e6
53	CheB53b (Chemosensory protein B 53b)	DRSC05613	3.56e6	4.06e6	4.00e6
54	CG12945	DRSC14573	3.45e6	3.92e6	3.93e6
55	Lcp1Psi (Larval cuticle protein 1 pseudogene)	DRSC05105	3.34e6	3.73e6	3.79e6
56	ATP7	DRSC19819	3.58e6	4.10e6	3.99e6
57	CG33218 (retired record)	DRSC22944	3.51e6	3.98e6	3.99e6
58	nsl1 (non-specific lethal 1)	DRSC15625	3.37e6	3.77e6	3.89e6
59	RhoGAP93B (Rho GTPase activating protein at 93B)	DRSC15488	3.46e6	3.87e6	4.00e6
60	aurA (aurora A)	DRSC16905	3.39e6	3.85e6	3.88e6
61	CG9825	DRSC04569	3.62e6	3.96e6	4.25e6
62	PMCA (plasma membrane calcium ATPase)	DRSC17113	3.58e6	4.03e6	4.07e6
63	PMCA (plasma membrane calcium ATPase)	DRSC17114	3.72e6	4.13e6	4.18e6
64	PMCA (plasma membrane calcium ATPase)	DRSC17154	3.72e6	4.43e6	3.98e6
65	Su(var)205 (Suppressor of variegation 205)	DRSC03446	3.66e6	4.29e6	4.04e6
66	CAH3 (Carbonic anhydrase 3)	DRSC17776	3.48e6	3.92e6	3.99e6
67	CG32523	DRSC20510	3.57e6	4.05e6	4.04e6
68	Tapdelta (Translocon-associated protein delta)	DRSC05946	3.65e6	4.23e6	4.06e6
69	slow (slowdown)	DRSC08589	3.71e6	4.40e6	4.03e6
70	slow (slowdown)	DRSC08590	3.43e6	3.87e6	3.90e6
71	CG43896	DRSC10754	3.77e6	4.30e6	4.15e6
72	CG34398	DRSC01052	3.32e6	3.77e6	3.71e6
73	CG34398	DRSC02510	3.45e6	3.82e6	3.99e6
74	CG34398	DRSC02511	3.59e6	3.99e6	4.19e6
75	CG34398	DRSC03228	3.40e6	3.61e6	4.06e6
76	CG34398	DRSC23293	3.75e6	4.27e6	4.23e6
77	CG32369	DRSC10042	3.43e6	3.83e6	3.92e6
78	CG32369	DRSC10834	3.54e6	3.94e6	4.10e6
79	PH4alphaEFB (prolyl-4-hydroxylase-alpha EFB)	DRSC14473	3.73e6	4.18e6	4.25e6
80	PH4alphaEFB (prolyl-4-hydroxylase-alpha EFB)	DRSC14950	3.52e6	4.02e6	3.94e6
81	CG34428	DRSC10119	3.42e6	3.80e6	3.93e6
82	igl (igloo)	DRSC07631	3.57e6	4.14e6	3.97e6
83	CG7448 (retired record)	DRSC11828	3.61e6	4.05e6	4.13e6
84	CG7448 (retired record)	DRSC22485	3.37e6	3.95e6	3.83e6
85	Pk34A (Protein kinase at 34A)	DRSC03398	3.61e6	4.13e6	4.05e6
86	CG15468	DRSC18051	3.50e6	3.97e6	4.00e6
87	CG12035	DRSC08238	3.56e6	4.05e6	4.02e6
